Experimental data: publication PMC2989921

Target: adenovirus E4 open reading frame 4 (E4orf4) protein (adenovirus (serotype not given))
Experiment: co-IP; E4orf4 immunoprecipitated from extracts of ynd1Δ yeast cells co-expressing the Ynd1 constructs; lysis and IP buffer 250 mM NaCl, 50 mM Tris-HCl pH 7.4, 5 mM EDTA, 0.5% Nonidet P-40, 0.1% Triton X-100; immune complexes and input (10% of IP) analysed by Western blot

Binder | binding
371-Ynd1 (Ynd1 with an N-terminal deletion of amino acids 1-370) (domain or fragment, UniProt P40009 371-630) NWTQILANSDKGVYNSIPENFLKDACFKGNWVLNILHEGFDMPRIDVDAENVNDRPLFQSVEKVEERELSWTLGRILLYASGSILAGNDDFMVGIAPSERRTKLTGKKFIPGKLLESDQLRKQSSSLSNKGFLMWFAIICCIFYLIFHRSHIIRRRFSGLYNITKDFKTGIRRRLKFLRRSDPFSRLEEGELGTDVDGFKDVYRMKSSSMFDLGKSSATMQREHEPQRTASQSANLAPSNLRPAFSMADFSKFKDSRLYD | binds
WT Ynd1 (Golgi apyrase Ynd1), Myc- and HA-tagged (protein, UniProt P40009 1-630) MLIENTNDRFGIVIDAGSSGSRIHVFKWQDTESLLHATNQDSQSILQSVPHIHQEKDWTFKLNPGLSSFEKKPQDAYKSHIKPLLDFAKNIIPESHWSSCPVFIQATAGMRLLPQDIQSSILDGLCQGLKHPAEFLVEDCSAQIQVIDGETEGLYGWLGLNYLYGHFNDYNPEVSDHFTFGFMDMGGASTQIAFAPHDSGEIARHRDDIATIFLRSVNGDLQKWDVFVSTWLGFGANQARRRYLAQLINTLPENTNDYENDDFSTRNLNDPCMPRGSSTDFEFKDTIFHIAGSGNYEQCTKSIYPLLLKNMPCDDEPCLFNGVHAPRIDFANDKFIGTSEYWYTANDVFKLGGEYNFDKFSKSLREFCNSNWTQILANSDKGVYNSIPENFLKDACFKGNWVLNILHEGFDMPRIDVDAENVNDRPLFQSVEKVEERELSWTLGRILLYASGSILAGNDDFMVGIAPSERRTKLTGKKFIPGKLLESDQLRKQSSSLSNKGFLMWFAIICCIFYLIFHRSHIIRRRFSGLYNITKDFKTGIRRRLKFLRRSDPFSRLEEGELGTDVDGFKDVYRMKSSSMFDLGKSSATMQREHEPQRTASQSANLAPSNLRPAFSMADFSKFKDSRLYD | binds
468-Ynd1-531 (Ynd1 lacking the N-terminal 467 residues and the C-terminal 99 amino acids) (domain or fragment, UniProt P40009 468-531) SERRTKLTGKKFIPGKLLESDQLRKQSSSLSNKGFLMWFAIICCIFYLIFHRSHIIRRRFSGLY | binds weakly
518-Ynd1 (cytosolic tail of Ynd1, amino acids 518-630) (domain or fragment, UniProt P40009 518-630) HRSHIIRRRFSGLYNITKDFKTGIRRRLKFLRRSDPFSRLEEGELGTDVDGFKDVYRMKSSSMFDLGKSSATMQREHEPQRTASQSANLAPSNLRPAFSMADFSKFKDSRLYD | binds
371-Ynd1-531 (Ynd1 lacking the N-terminal 370 residues and the C-terminal 99 amino acids) (domain or fragment, UniProt P40009 371-531) NWTQILANSDKGVYNSIPENFLKDACFKGNWVLNILHEGFDMPRIDVDAENVNDRPLFQSVEKVEERELSWTLGRILLYASGSILAGNDDFMVGIAPSERRTKLTGKKFIPGKLLESDQLRKQSSSLSNKGFLMWFAIICCIFYLIFHRSHIIRRRFSGLY | binds weakly
468-Ynd1 (Ynd1 with an N-terminal deletion of amino acids 1-467) (domain or fragment, UniProt P40009 468-630) SERRTKLTGKKFIPGKLLESDQLRKQSSSLSNKGFLMWFAIICCIFYLIFHRSHIIRRRFSGLYNITKDFKTGIRRRLKFLRRSDPFSRLEEGELGTDVDGFKDVYRMKSSSMFDLGKSSATMQREHEPQRTASQSANLAPSNLRPAFSMADFSKFKDSRLYD | binds

No constants are given. Whether binding was seen depends on the method and setting. Binding seen in cells or lysates may run through a third protein. Binding calls can cover weak binding; strength is not graded here. Tags and fused reporters may be left off the sequences shown.
